Reference: PubChem BioAssay AID743454 (Peter MacCallum Cancer Centre, 2014)
Shown is an unselected part of about 18,000 reagents. In the full data, 450 (2.5%) were called active. 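Single biological run; no consistent viability z cut-off exists, so the class columns, not z-scores, define the calls.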 Reagent sequences are not shown.

Assay: 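Knock-downs lowering viability or raising caspase 3/7 activity in vorinostat-treated resistant cells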 (primary screen)
Cell system: human HCT116-VR colon cancer cells, selected for vorinostat resistance
Reagent: siRNA pool against human genes, 40 nM siRNA pool
Time to read-out: vorinostat for 24 h, read-out about 72 h after transfection
Conditions: vorinostat at 2.5 µM final
Detection: 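Two measures, CellTiter-Fluor viability and luminescent caspase 3/7 activity, each as fold change against same-plate mock wells, mean of duplicates, then screen-wide robust z-score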
Reading the numbers: viability robust z-score: higher = more viable cells than screen typical; caspase robust z-score: higher = more caspase 3/7 activity than screen typical
Active means: 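a knock-down is a hit when classed RV1 or RV2 for lowered viability, or CA1 or CA2 for caspase activation; those lethal without drug were dropped; hits were retested singly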

| gene symbol | viability hit class | caspase hit class | viability robust z-score | caspase robust z-score | Call |
| --- | --- | --- | --- | --- | --- |
| ALKBH6 | no change | no change | -1.48 | 3.57 | inactive |
| SERPINB11 | no change | no change | 0.06 | -1.12 | inactive |
| IFT27 | no change | no change | 0.36 | -0.88 | inactive |
| CXCR4 | no change | no change | 0.38 | 0.38 | inactive |
| HSD17B6 | no change | no change | -1.75 | 2.07 | inactive |
| ANO7 | no change | no change | 0.28 | -0.8 | inactive |
| PIKFYVE | no change | no change | -0.07 | -0.45 | inactive |
| WASHC4 | no change | no change | -2.38 | 2.88 | inactive |
| TRABD | no change | no change | -0.35 | 0.28 | inactive |
| IFI27L1 | no change | no change | 0.54 | 0.03 | inactive |
| MAP3K13 | no change | no change | 0.3 | -0.46 | inactive |
| C11orf16 | no change | no change | -1.64 | 1.97 | inactive |
| CSF3 | no change | no change | -1.25 | -1.04 | inactive |
| SLC15A1 | no change | no change | 0.86 | 0.5 | inactive |
| GMFB | no change | no change | 1.11 | -0.83 | inactive |
| EPSTI1 | no change | no change | 0.02 | -0.48 | inactive |
| KIF14 | no change | no change | -1.14 | 2.06 | inactive |
| CLEC9A | no change | no change | 0.32 | -0.38 | inactive |
| CTSB | no change | no change | -1.97 | 0.7 | inactive |
| COLGALT2 | no change | no change | 1.59 | 0.68 | inactive |
| SYT13 | no change | no change | 0.18 | 1.52 | inactive |
| NUP35 | no change | no change | -0.19 | 0.19 | inactive |
| SPRY3 | no change | no change | 1.38 | 0.02 | inactive |
| NR2F6 | no change | no change | 0.08 | 0.78 | inactive |
| CCDC77 | no change | no change | -1.57 | 2.79 | inactive |
| SPOCK1 | no change | no change | -0.33 | 3.03 | inactive |
| SPRY2 | no change | no change | 1.16 | -0.42 | inactive |
| SPEM2 | no change | no change | 2.09 | -0.34 | inactive |
| P4HA3 | no change | no change | -1.51 | -0.83 | inactive |
| NGLY1 | no change | no change | 1.58 | -0.64 | inactive |
| MORN3 | no change | no change | -0.8 | 0.44 | inactive |
| ODF2 | no change | no change | 0.28 | 2.25 | inactive |
| NANOS1 | no change | no change | 0.16 | 1.42 | inactive |
| RFTN2 | no change | no change | 0.89 | -0.49 | inactive |
| BRWD3 | no change | no change | 0.78 | -0.78 | inactive |
| CAPN9 | no change | no change | -0.22 | 0.52 | inactive |
| TTR | no change | no change | -0.6 | -0.63 | inactive |
| KCNJ1 | no change | no change | -0.54 | 0.88 | inactive |
| CIMIP4 | no change | no change | -0.66 | -0.6 | inactive |
| SEC22C | no change | no change | 0.34 | 0.26 | inactive |
| GFRA1 | no change | no change | 0.3 | -0.9 | inactive |
| DTX3L | no change | no change | -2.14 | 2.01 | inactive |
| TDRD7 | no change | no change | -1.62 | 4.78 | inactive |
| TBC1D7 | no change | no change | 1.05 | -0.69 | inactive |
| LUM | no change | no change | 0.46 | 0.16 | inactive |
| RELL1 | no change | no change | 0.51 | 0.1 | inactive |
| OGFOD3 | no change | no change | 0.08 | -0.49 | inactive |
| BRCA1 | no change | no change | 0 | -0.24 | inactive |
| E2F2 | no change | CA1 (caspase activation) | 0.1 | 5.7 | active |
| HMGB2 | no change | no change | -0.72 | 2.52 | inactive |
| NKAIN2 | no change | no change | 0.36 | -1 | inactive |
| CTIF | RV2 (reduced viability) | no change | -3.45 | 0.93 | active |
| OR2G6 | no change | no change | 0.5 | -0.64 | inactive |
| MRPS6 | no change | no change | 0.11 | -0.92 | inactive |
| EIF3E | no change | no change | -2.26 | -1 | inactive |
| DIAPH2 | no change | no change | -0.32 | 0.48 | inactive |
| SCGN | no change | no change | -0.55 | 1.57 | inactive |

Records above whose gene name starts with K or k (2):
| gene symbol | viability hit class | caspase hit class | viability robust z-score | caspase robust z-score | Call |
| --- | --- | --- | --- | --- | --- |
| KIF14 | no change | no change | -1.14 | 2.06 | inactive |
| KCNJ1 | no change | no change | -0.54 | 0.88 | inactive |
